{"source": "PubChem BioAssay AID493014", "about": "(National Center for Advancing Translational Sciences (NCATS), 2011)", "note": "Screen size: about 340,000 compounds; about 170 (0.05%) were called active. Inconclusive means that the source gave no clear call. Such entries were picked first, then a sample of the others. Calls follow the shape of the dose curve; as a rule, active = well fitted inhibition curve with a large enough effect in the signal ratio, with a control signal flat (not every such curve was filed as active); inconclusive = small, poorly fitted or top-dose-only effect, or effect the other way, or a change in a side signal; inactive = flat fitted curve, though single readings scatter; the % refers to the signal ratio. Potencies of inconclusive entries are doubtful fits and often do not repeat. Potency is read from the fitted curve at half-maximal effect.", "data": [{"experiment": "qHTS Assay to Find Inhibitors of Chronic Active B-Cell Receptor Signaling;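 as to activity change, negative = inhibition: plate controls were basal doxycycline-induced cells for no effect and cells given 10 µM MG132 for full effect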", "conditions": "ABC-DLBCL IkBa-CBG/CBR reporter, luminescence ratio (green luciferase fused to IkBa over red control in TMD8 lymphoma cells), 4 h; activity change, negative = inhibition: at 46.1 µM (top of the series)", "how_it_was_run": "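Compounds up to 46 uM were incubated four hours with TMD8 cells whose green CBG68 luciferase is fused to IkappaBalpha; red CBR luminescence normalised the signal, and concentration-effect curves were fitted to fusion, red and ratio data.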", "values": [{"smiles": "Cc1ccc[n+](-c2nc3ccccc3nc2[N-]S(=O)(=O)c2ccccc2)c1", "activity change, negative = inhibition": "inconclusive: 7.23%"}, {"smiles": "CS(=O)(=O)c1[nH]nc(-c2cccc(Cl)c2)c1C#N", "activity change, negative = inhibition": "inconclusive: -1.48%"}, {"smiles": "CCn1c(SCc2cc(=O)n3ccsc3n2)nc2ccccc21", "Potency": "inconclusive: 35.5 µM [falling, partial curve, poor fit]"}, {"smiles": "O=C(CSc1nnc(-c2ccncc2)o1)Nc1cccc(F)c1", "activity change, negative = inhibition": "inactive"}, {"smiles": "O=C(Nc1ccc(Cl)cc1)Nc1ccc(Br)cn1", "activity change, negative = inhibition": "inconclusive: 9.5%"}, {"smiles": "CC(C)(C)c1cc(NC(=O)CCl)n(-c2ccccc2)n1", "Potency": "inconclusive: 25.1 µM [falling, single point]"}, {"smiles": "Cc1nn(C)c(Sc2ccccc2N)c1[N+](=O)[O-]", "Potency": "inconclusive: 28.2 µM [falling, single point]"}, {"smiles": "Cc1nc(NC(=O)c2ccc3c(c2)OCCO3)ccc1Br", "Potency": "inconclusive: 25.1 µM [falling, single point]"}, {"smiles": "CCOc1cc(CNCC(C)C)cc(Cl)c1OCc1ccccc1", "activity change, negative = inhibition": "inconclusive: 0.841%"}, {"smiles": "Cc1nnc(NC(=O)CSc2nc(C(C)C)nc3sc(C)c(C)c23)s1", "activity change, negative = inhibition": "inactive"}, {"smiles": "CC(C)C/C=C1\\CCc2c([nH]c3ccccc23)C1=O", "Potency": "inconclusive: 12.6 µM [falling, single point]"}, {"smiles": "O=C(c1cccc(Cl)c1)N1CCN(CCCc2ccccc2)CC1", "activity change, negative = inhibition": "inactive"}, {"smiles": "CC12CN3CCN(CC(C3)/C1=N/NC(=O)Nc1ccccc1)C2", "activity change, negative = inhibition": "inconclusive: 3.82%"}, {"smiles": "O=[N+]([O-])/C=C/c1cn(Cc2ccccc2)c2ccccc12", "activity change, negative = inhibition": "inconclusive: 29.6%"}, {"smiles": "Cc1cc(C(=O)CSc2nc(N)cc(N)n2)c(C)n1-c1cccc(F)c1", "activity change, negative = inhibition": "inconclusive: -14.1%"}, {"smiles": "COc1ccc(S(=O)(=O)NCCCN2CCCC2=O)c(OC)c1", "activity change, negative = inhibition": "inactive"}, {"smiles": "Cc1nc(CNS(=O)(=O)c2cc([N+](=O)[O-])ccc2C)cs1", "activity change, negative = inhibition": "inconclusive: -1.42%"}, {"smiles": "CNC(=O)c1c(NC(=O)c2ccc(S(=O)(=O)N3CCCCC3)cc2)sc2c1CCN(C(C)C)C2", "activity change, negative = inhibition": "inactive"}, {"smiles": "Cc1cccc(NC(=O)CSc2n[nH]c(-c3ccncc3)n2)c1", "Potency": "inconclusive: 35.5 µM [falling, partial curve, poor fit]"}, {"smiles": "CC(C)CCN(C(=S)NC(=O)C1CCCCC1)c1c(N)n(Cc2ccccc2)c(=O)[nH]c1=O", "activity change, negative = inhibition": "inactive"}, {"smiles": "CSc1nc2ccccc2n1CC(=O)Nc1ccc(C)c(C)c1", "activity change, negative = inhibition": "inactive"}, {"smiles": "CC1(C)Cc2nc3nc(SCC(=O)NCc4ccccc4)n(-c4ccccc4)c(=O)c3cc2CO1", "activity change, negative = inhibition": "inconclusive: 1.15%"}, {"smiles": "CCOC(=O)Cn1nc(NC(=O)COc2ccc(F)cc2)cc1C", "activity change, negative = inhibition": "inactive"}, {"smiles": "CC(C)CN(C(=O)c1ccc(C(F)(F)F)cc1)c1c(N)n(CC(C)C)c(=O)[nH]c1=O", "activity change, negative = inhibition": "inconclusive: 5.25%"}, {"smiles": "COCc1c(C(=O)N/N=C/c2ccncc2)nnn1-c1nonc1N", "activity change, negative = inhibition": "inconclusive: 6.18%"}, {"smiles": "CCOC(=O)CN(C(=O)CSc1nnc2c(n1)[nH]c1ccccc12)c1ccccc1", "activity change, negative = inhibition": "inconclusive: 8.04%"}, {"smiles": "Cn1ncc(-c2ccno2)c1C(=O)O", "activity change, negative = inhibition": "inactive"}, {"smiles": "CCOC(=O)Cn1nc(C)c(NC(=O)c2ccc(Br)o2)c1C", "activity change, negative = inhibition": "inconclusive: 8.59%"}, {"smiles": "COc1ccc(OC)c2sc(NC(=O)c3ccc(Br)s3)nc12", "Potency": "inconclusive: 0.0731 µM [rising, full curve]"}, {"smiles": "CN(C(=O)CSc1nc2ccccc2c(=O)n1C)C1CCS(=O)(=O)C1", "note": "(stereo unspecified)", "activity change, negative = inhibition": "inactive"}, {"smiles": "O=c1c2ccccc2nc(SCc2cn3ccsc3n2)n1-c1ccccc1F", "Potency": "inconclusive: 6.51 µM [falling, partial curve]"}, {"smiles": "CC(C)NC(=O)c1ccccc1NC(=O)CS(=O)(=O)Cc1ccccc1", "activity change, negative = inhibition": "inconclusive: 26.2%"}, {"smiles": "CCOC(=O)c1cccc(S(=O)(=O)N(CCO)Cc2cc3cc(OC)ccc3[nH]c2=O)c1", "activity change, negative = inhibition": "inconclusive: 3.41%"}, {"smiles": "Cc1ccc(-n2nnc3c(SCC(=O)NCC4CCCO4)ncnc32)cc1", "note": "(stereo unspecified)", "activity change, negative = inhibition": "inconclusive: 2.75%"}, {"smiles": "Nc1nc(SCC(=O)Nc2ccccc2Sc2ccccc2)n[nH]1", "activity change, negative = inhibition": "inconclusive: -29.9%"}, {"smiles": "O=C(/C=C/c1ccc(F)cc1)Nc1cccc(S(=O)(=O)Nc2cccc(C(F)(F)F)c2)c1", "activity change, negative = inhibition": "inconclusive: 4.06%"}, {"smiles": "C(=N\\N1CCN(c2ccccn2)CC1)/C1=C(N2CCOCC2)C(=C/c2ccccc2)/CC1", "activity change, negative = inhibition": "inconclusive: 4.55%"}, {"smiles": "Cc1ccc(C)c(N2CCN(C(=S)Nc3ccc4nc(N5CCN(C)CC5)cc(C)c4c3)CC2)c1", "activity change, negative = inhibition": "inconclusive: -17.3%"}, {"smiles": "O=C(NCc1cccc(C(F)(F)F)c1)c1cccc(S(=O)(=O)NCc2ccccc2)c1", "activity change, negative = inhibition": "inactive"}, {"smiles": "O=C(N[C@H]1C/C=C\\C[C@@H](CC(=O)N(CCO)Cc2ccccc2)C(=O)NC[C@H](c2ccccc2)OC1=O)OCC1c2ccccc2-c2ccccc21", "activity change, negative = inhibition": "inconclusive: 0.0467%"}, {"smiles": "COCCn1c(C)cc(C(=O)COC(=O)CNC(=O)c2ccccc2)c1C", "activity change, negative = inhibition": "inconclusive: 2.51%"}, {"smiles": "O=C(CSc1nc2ccccc2c(=O)n1-c1ccc(OC(F)F)cc1)NC1CC1", "Potency": "inconclusive: 20.6 µM [falling, partial curve, poor fit]"}, {"smiles": "C=CCN(Cc1cccs1)C(=O)COc1ccc2c(c1)OCO2", "activity change, negative = inhibition": "inactive"}, {"smiles": "Cc1ccc(N2C(=O)CC(c3c[nH]c4ccccc34)C2=O)cc1", "note": "(stereo unspecified)", "Potency": "inconclusive: 22.4 µM [falling, partial curve, poor fit]"}, {"smiles": "CC(C)COc1ccc(C(=O)Nc2ncn[nH]2)cc1", "activity change, negative = inhibition": "inconclusive: 0.666%"}, {"smiles": "COc1cccc(CNC(=O)CCC(=O)n2ncc3cc(C)ccc32)c1OC", "activity change, negative = inhibition": "inconclusive: 2.47%"}, {"smiles": "O=C(CN1C(=O)C2CCCCC2C1=O)Nc1ccc(S(=O)(=O)Nc2ncccn2)cc1", "note": "(stereo unspecified)", "activity change, negative = inhibition": "inconclusive: -2.51%"}, {"smiles": "Cc1ccccc1S(=O)(=O)Cc1ccc(C(=O)N2CCN(c3cccc(C)c3C)CC2)o1", "Potency": "inconclusive: 23.1 µM [falling, partial curve, poor fit]"}, {"smiles": "O=C(Nc1ccccc1O)c1ccc(NS(=O)(=O)c2cccc3cccnc23)cc1", "Potency": "inconclusive: 0.562 µM [cytotoxic, full curve, poor fit]"}, {"smiles": "CCc1cccc(CC)c1N(COC)C(=O)Cn1c(CO)nc2ccccc21", "activity change, negative = inhibition": "inconclusive: 0.592%"}, {"smiles": "CC1(C)CC(NC(=S)NC(=O)c2cc(Br)ccc2Cl)CC(C)(C)N1", "activity change, negative = inhibition": "inactive"}]}]}
